In US20130012432A1 (Novo Nordisk A/S, priority 2010, published 2013) one finds isolated mass and isolated yield data, which are given here for two substances.

A short description of data set [1]: general procedure: Fmoc solid-phase peptide synthesis; Rink AM polystyrene; HBTU/HOBt/DIPEA; HOAt/DIC; HOAt/DIC with 2,4,6-collidine. The conditions noted are these: whole synthesis, scale 0.25 mmol, trifluoroacetate.
The nature of data set [2]: general procedure: Fmoc solid-phase peptide synthesis; Fmoc-Rink amide AM polystyrene; HBTU/HOBt/DIPEA; HOAt/DIC; HOAt/DIC with 2,4,6-collidine. The conditions noted are these: whole synthesis, scale 0.25 mmol, trifluoroacetate.

On to “Ac-c[Dap-His-D-Phe-Arg-Trp-Asp]-Pro-Pro-Arg-Asp-Lys-Lys[(2-{2-[16-(tetrazol-5-yl)hexadecanoylamino]ethoxy}ethoxy)acetyl]-NH2”, for which, in data set [1], the isolated mass is listed as 0.032 mmol and the isolated yield amounted to 13% yield.
For the substance “Ac-homoCys(Trt)-His(Trt)-D-Phe-Arg(Pbf)-Trp(Boc)-Cys(Trt)-Pro-Pro-Lys(Boc)-Glu(OtBu)-Lys(ivDde)-Lys(Mtt)-NH-RinkAM-polystyrene”, the isolated yield in data set [2] (from 0.25 mmol of Rink AM resin) is reported as 10% yield. The same substance had an isolated mass in data set [2] of 51 mg.
